In US20210147525A1 (University of California, published 2021):
Results are given in words; binding and its absence hold for the method and conditions named. Some binding calls cover weakened binding; strength is not graded here.

How the values were obtained:
[1] = biological target: T1, domain B-deleted PLXDC1 (on transfected cells) (human) (UniProt Q8IUK5); experiment: antibody staining of transfected cells
T1 sequence: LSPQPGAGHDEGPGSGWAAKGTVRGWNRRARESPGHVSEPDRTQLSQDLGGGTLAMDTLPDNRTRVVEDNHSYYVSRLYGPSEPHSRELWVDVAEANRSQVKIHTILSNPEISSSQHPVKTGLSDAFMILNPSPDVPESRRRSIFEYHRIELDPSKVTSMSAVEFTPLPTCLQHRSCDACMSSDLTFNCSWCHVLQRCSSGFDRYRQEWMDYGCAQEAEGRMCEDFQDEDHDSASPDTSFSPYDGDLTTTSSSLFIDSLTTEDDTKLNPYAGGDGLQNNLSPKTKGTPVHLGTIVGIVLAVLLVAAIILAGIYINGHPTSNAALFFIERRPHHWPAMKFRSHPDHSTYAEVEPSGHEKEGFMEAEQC

[2] = biological target: T1, domain B-deleted PLXDC1 (on transfected cells) (human); experiment: staining of transfected cells with 20 nM antibody, fluorescence microscopy

- binding [1]: binds
- binding [2]: binds
B1: 3-G7 (antibody, V domains shown)
VH: QVQLVQSGAEVKKPGSSVKVSCKASGGTFSTEYISWVRQAPGQGLEWMGRIIPVLGITNYAQKFQGRVTITADESTSTAYMELSSLRSEDTAVYYCARHLGPPYLVTYSHGFDVWGQGTLVTVSS
VL: EIVMTQSPATLSVSPGERATLSCRASQSLGTNLAWYQQKPGQAPRLLIYGASTRATGIPARFSGSGSGTEFTLTISSLQSEDFAVYYCQQYYEAPPTFGQGTKVEIK
